Test system: molinate-MoAb 14D7 immunocomplex
Assay: Noncompetitive phage ELISA (PHAIA) for molinate
Assay type: binding
Source text: In a similar way that the IC50 (the analyte concentration producing 50% inhibition) is used to denote the sensitivity of competitive methods, we refer to the concentration of analyte producing 50% saturation (SC50) in noncompetitive assays as a practical parameter to compare the sensitivity of our assays. […] For each of these clones, the assay conditions were optimized as described previously. […] These differences highlight the importance of the residues that flank the WDT consensus sequence of the selected peptides. This can be seen in the case of the S1 and S4 peptide sequences, which only differ in two amino acids and yield assays with SC50 of 5 and 32 ng/ml, respectively.
Nunc-Immuno™ Maxi-Sorp™ plates were coated with MoAb 14D7 or molinate-MoAb 14D7 immunocomplex as described previously. The wells were blocked with 5% skimmed milk PBS, and washed three times with PBST. […] The enzymatic reaction was stopped after 15-20 min by the addition of 50 μl of 2 M H2SO4, and the absorbance at 450 nm (corrected at 600 nm) was read in a microtiter plate reader (Multiskan MS, Labsystems). The supernatants showing high readings in wells coated with the immunocomplex and low response in antibody coated wells were prepared as stabilized phage suspensions (see below), and use for further analysis. […]

C S T W D T T G W C (CSTWDTTGWC; phage-displayed on pVIII, cyclic) [1M]
DL (lower detection limit) (molinate, zero standard plus three times its standard deviation): 0.73 ng/mL | sensitivity relative to the competitive ELISA (versus competitive ELISA IC50=69.2±1.4 ng/ml with the same MoAb): about 14 times

Reference: US20080305559A1, “Non-Competitive Immunoassays to Detect Small Molecules” (priority 2005, published 2008)
